Measurements reported in PMC9927549.

Target: glycoprotein 5 (GP5) of PRRSV strain JXwn06, Flag-tagged (PRRSV strain JXwn06)
Assay: co-IP; HEK293T cells cotransfected with Flag-tagged GP5 and HA-tagged Nat9 constructs, harvested 24 h posttransfection; RIPA lysis; anti-Flag beads at 4°C overnight; Western blotting

B1: porcine Nat9 truncation, aa 33-212, HA-tagged (domain or fragment, UniProt A0A8W4F8U4 33-212)
chain: YHEWMKSEELQRLTASEPLTLEQEYAMQQSWREDADKCTFIVLAAEKWQGQPGPSEESCMAGDVNLFLTDLGDPSLGEIEVMIAEPSCRGQGLGTEAVLMMMAYGVTKLGLTTFEAKIGQENEPSIRMFRRLHFEQVAVSSVFQEVTLRLTMSEPERQWLLEQTSHMQEKPYRDGSSEPH
binding: binds

Results are given in words; binding and its absence hold for the method and conditions named. Binding seen in cells or lysates may run through a third protein. A result given as binding can be weak or reduced; the word gives no strength. Sequences can lack the tags named with a protein.
